For at least one compound, name, drawing or mass did not settle the structure.
Biological target: T1, hKv7.2/7.3 (Homo sapiens, UniProt O43525+O43526)
T1 construct: host or cells: HEK cells, tetracycline-inducible expression
Test: Kv7.2/7.3 Activation Assay, QPatch planar patch-clamp single concentration screen
Format: cell-based
Conditions: increase in current over baseline, Kv7.2/Kv7.3 co-expressing HEK cells, compound concentration 3 μM, steady-state current at end of 2 s pulse to −30 mV
Experimental: The ability of compounds to potentiate K-currents in Kv7.2/7.3 containing HEK cells was assessed using planar patch-clamp on the QPatch automated screening platform.
Cell Line: The hKv7.2/7.3 cell line was obtained from Chantest (Cleveland, OH 44128) cat. #CT6147. These HEK cells will express the Kv7.2/7.3 ion channels when induced.
Cell Culture: Cells were maintained in a media containing DMEM/F12; 50/50 (GIBCO cat. #11330), 10% Fetal Bovine Serum (FBS) (GIBCO cat. #26140), 100 units/mL Penicillin-Streptomycin (GIBCO cat. #15140), 0.005 mg/mL Blasticidin (INVIVOGEN cat. #ant-bl-1), 0.5 mg/mL Geneticin (GIBCO cat. #10131), 0.1 mg/mL Zeocin (GIBCO cat. #R25001). […] Currents were recorded 24 hours after channel induction. […]
Potassium channel activity was measured on the QPatch HTX (Sophion Bioscience) using QPlates with 48-wells/plate. […]
Single concentration screen: Baseline conditions were obtained by recording 5 sweeps in the external solution only, this was repeated for three applications of the external solution. The effect of test compounds on elicited current was then assessed by recording 5 sweeps in the presence of a 3 μM compound solution. The steady-state current at the end of the 2 s pulse to −30 mV was measured to determine the fold increase from baseline.

## CC(O)(CC(=O)Nc1nn2ccc(C(F)(F)F)cc2c1C1CCC1)C1CCCC1 (centres unmarked) [Example 24, N-(3-cyclobutyl-5-(trifluoromethyl)pyrazolo [1,5-a]pyridin-2-yl)-3-cyclopentyl-3-hydroxybutanamide]
  QPatch Kv7.2/7.3 Activity: ++ (4.0-5.99 (++))

## CC(O)(CC(=O)Nc1nn2ccc(C(F)(F)F)cc2c1-c1ccccc1)C1CCCC1 (centres unmarked) [Example 25, 3-cyclopentyl-3-hydroxy-N-(3-phenyl-5-(trifluoromethyl)pyrazolo [1,5-a]pyridin-2-yl)butanamide]
  QPatch Kv7.2/7.3 Activity: ++ (4.0-5.99 (++))

From patent publication US20250066351A1, “PYRAZOLO[1,5-A]PYRIDIN-2,3-YL AMIDES AS KV7 CHANNEL ACTIVATORS” (Biohaven Therapeutics Ltd., priority 2022, published 2025)
